At least one compound was matched to its structure with a doubt left.
Tested on: mice
Experiment: stress-induced hyperthermia (SIH)
Format: in vivo

Structure (SMILES): CNC1=Nc2ccc(Cl)cc2C(c2ccccc2)=[N+]([O-])C1 [chlordiazepoxide, reference compound]
- SIH response (ΔT between two rectal temperatures) (acute, rat amylin 0.1, 1.0 or 10 mg/kg, chlordiazepoxide 10 mg/kg, 60 minutes before the assay, FIG. 2): blunted the SIH response
- SIH response, chronic administration (subcutaneously implanted pumps, amylin 300 μg/kg/d, CDP 10 mg/kg/d, at both 1 week and 4 weeks): significantly blunted the SIH response
